Results from publication doi:10.1101/2022.03.22.485398.
No constants are given. Whether binding was seen depends on the method and setting. Binding seen in cells or lysates may run through a third protein. A yes stands for co-enrichment or nearness to the bait. Other partners may have been found. Tags and fused reporters may be left off the sequences shown.

Target: T1, AtALKBH9B:GFP (proUBQ10::AtALKBH9B:GFP) (Arabidopsis (Col-0 cDNA)) (UniProt Q9SL49)
T1 sequence: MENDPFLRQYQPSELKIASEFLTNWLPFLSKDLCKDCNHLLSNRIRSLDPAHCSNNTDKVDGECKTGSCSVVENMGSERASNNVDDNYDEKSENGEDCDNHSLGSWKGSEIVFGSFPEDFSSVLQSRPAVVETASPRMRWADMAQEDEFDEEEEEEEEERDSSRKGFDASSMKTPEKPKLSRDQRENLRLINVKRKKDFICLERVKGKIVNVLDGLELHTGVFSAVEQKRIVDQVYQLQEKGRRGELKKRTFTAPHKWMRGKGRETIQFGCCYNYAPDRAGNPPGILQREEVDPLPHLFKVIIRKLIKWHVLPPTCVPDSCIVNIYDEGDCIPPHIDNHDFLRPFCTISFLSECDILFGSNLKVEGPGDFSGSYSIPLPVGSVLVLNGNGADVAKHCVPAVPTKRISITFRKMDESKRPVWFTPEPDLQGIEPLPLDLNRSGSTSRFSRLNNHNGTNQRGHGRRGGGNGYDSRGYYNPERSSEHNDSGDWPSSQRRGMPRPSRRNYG
Assay: affinity purification with mass spectrometry

Binder | binding
ECT1 (protein, UniProt Q3MK94 1-428) MAGAASSDRLVTSFPLLDTADLFQDLSLGSDANEVPMNFTKGSFQHPYGHAPYGASSHGSERRPNMNAGNLLNGGDSIGSYPWGYIPANYPSGGYPDPRFGYDRNSNHSSFSHLMNPHSSQEVPSFDQLGYNDHLYSNHGLYGLYGNVIDSGHAYGTFGYDSWKLGRGWYPVDGYRKTRSFNHGRGYSDEKADRLNELCRGPRSSDFKNPQVLNSSMLDAMKQDVSAVDLQRYNGENFPESFVKAKFFVIKSYSEDDVHNCIKYGAWSSTPTGNKKLNAAYYEAKENSQECPVYLLFSVNASGQFVGLAEMVGPVDFNKTMEYWQQDKWIGCFPVKWHIIKDIPNSLLRHITLANNENKPVTNSRDTQEVNLEHGTKIIKIFKEYMSKTCILDDYKFYETRQKIIRDKKIKQKKQALDGASGETINLS | binds
ECT2 (protein, UniProt Q9LJE5 1-667) MATVAPPADQATDLLQKLSLDSPAKASEIPEPNKKTAVYQYGGVDVHGQVPSYDRSLTPMLPSDAADPSVCYVPNPYNPYQYYNVYGSGQEWTDYPAYTNPEGVDMNSGIYGENGTVVYPQGYGYAAYPYSPATSPAPQLGGEGQLYGAQQYQYPNYFPNSGPYASSVATPTQPDLSANKPAGVKTLPADSNNVASAAGITKGSNGSAPVKPTNQATLNTSSNLYGMGAPGGGLAAGYQDPRYAYEGYYAPVPWHDGSKYSDVQRPVSGSGVASSYSKSSTVPSSRNQNYRSNSHYTSVHQPSSVTGYGTAQGYYNRMYQNKLYGQYGSTGRSALGYGSSGYDSRTNGRGWAATDNKYRSWGRGNSYYYGNENNVDGLNELNRGPRAKGTKNQKGNLDDSLEVKEQTGESNVTEVGEADNTCVVPDREQYNKEDFPVDYANAMFFIIKSYSEDDVHKSIKYNVWASTPNGNKKLAAAYQEAQQKAGGCPIFLFFSVNASGQFVGLAEMTGPVDFNTNVEYWQQDKWTGSFPLKWHIVKDVPNSLLKHITLENNENKPVTNSRDTQEVKLEQGLKIVKIFKEHSSKTCILDDFSFYEVRQKTILEKKAKQTQKQVSEEKVTDEKKESATAESASKESPAAVQTSSDVKVAENGSVAKPVTGDVVANGC | binds
